The results in this text go back to patent US20260266833A1 (AXOIYA, published 2026).

Positions count from the first letter of the chain named. Non-standard residues stand in square brackets, D forms with d. No end group written: not given here. *: point of attachment. Biotin = O=C1N[C@H]2[C@H](CS[C@H]2CCCCC(=O)*)N1; Arg(Me) = CNC(=N)NCCC[C@H](N)C(=O)O; Ahx = NCCCCCC(=O)O

To fix the notation:
T1: H3K14Ac
T1 construct: also called H3K14Ac peptide
T1 peptide: {Biotin-Ahx}-TARKSTGGK(Ac)APRKQLAT

T2: H3K27me1 (Kme1 at peptide residue 10 (histone H3 K27); N-terminal biotin and aminohexanoic acid linker)
T2 construct: also called H3K27Me1 peptide
T2 peptide: KQLATKAARKSAPATGGVK

T3: H3K27me2 (Kme2 at peptide residue 10 (histone H3 K27); N-terminal biotin and aminohexanoic acid linker)
T3 construct: also called H3K27Me2 peptide
T3 peptide: KQLATKAARKSAPATGGVK

T4: H3R17
T4 construct: also called H3R17 peptide (non-modified)
T4 peptide: {Biotin-Ahx}-KSTGGKAPRKQLATKAA

T5: H3R17me1
T5 construct: also called H3R17me1 peptide
T5 peptide: {Biotin-Ahx}-KSTGGKAP[Arg(Me)]KQLATKAA

T6: H3K14
T6 construct: also called H3K14 peptide (non-modified)
T6 peptide: {Biotin-Ahx}-TARKSTGGKAPRKQLAT

T7: H3K27me3 peptide (Kme3 (trimethyl-lysine) at the 10th residue (KQLATKAARKme3SAPATGGVK); N-terminus biotin + aminohexanoic acid linker, or FITC at the N-terminus for fluorescence polarization)
T7 construct: Synthetic peptide (GenScript)
T7 peptide: KQLATKAARKSAPATGGVK

T8: H3K27 peptide (non-methylated) (also: N-terminal biotin + Ahx, or FITC at N-terminus)
T8 construct: also called unmethylated H3K27 peptide
T8 peptide: KQLATKAARKSAPATGGVK

B1: Cbx5.wt chromodomain-luciferase fusion (other)
chain: MSYYHHHHHHGSDYKDDDDKSSGENLYFQGSGGSEEEYVVEKVLDRRVVKGQVEYLLKWKGFSEEHNTWEPEKNLDCPELISEFMKKYKKMKEGEN
notes: not shown: engineered YY5 firefly luciferase from Photinus pyralis fused to the C-terminus
B2: Cbx5.VD chromodomain-luciferase fusion (designed binder)
chain: B1 chain with E36D, K60E
notes: as for B1
B3: Cbx3.wt chromodomain-luciferase fusion (other)
chain: MSYYHHHHHHGSDYKDDDDKSSGENLYFQGSGGSEEAEPEEFVVEKVLDRRVVNGKVEYFLKWKGFTDADNTWEPEENLDCPELIEAFLNSQK
notes: as for B1
B4: Cbx1.wt chromodomain-luciferase fusion (other)
chain: MSYYHHHHHHGSDYKDDDDKSSGENLYFQGSGGSEEEEYVVEKVLDRRVVKGKVEYLLKWKGFSDEDNTWEPEENLDCPDLIAEFLQSQKTAHETDK
notes: as for B1
B5: Cbx1.VD chromodomain-luciferase fusion (designed binder)
chain: B4 chain with E37D, K61E
notes: as for B1

The target in one experiment is T1, H3K14Ac. Description: luciferase-fusion assay on immobilized peptide. The protocol:
(§1) For luciferase-based assays, 384-well white plates (PerkinElmer) were coated for 16 h at 4° C. with 4 μg/ml streptavidin (New England Biolabs, N7021S) in TBS pH 8.5 (50 mM Tris-HCl pH 8.5, 150 mM NaCl). Each well was blocked with 60 μl/well of TBS pH 8.5 containing 0.5% BSA (TB buffer) and incubated at 25° C. for 1 h. Plates were washed four times with 90 μl/well of PBS pH 7.4, 0.05% Tween-20 (PT buffer) and incubated with 25 μl/well of biotinylated histone peptides at 5 μg/ml in TB buffer pH 8.5 for 30 min at 25° C. Plates were washed and incubated with Cbx chromodomain-luciferase fusions diluted to 0.1 nM for Cbx. VD or 100 nM for Cbx.wt in TB buffer, 0.05% Tween-20, 1 mM DTT, 5% glycerol (TBT buffer). Plates were incubated for 1 h at 25° C. with gentle shaking, washed six times and luminescence intensity was measured with a Biotek Synergy 5 plate reader (Biotek) using the ONE-Glo™ EX luciferase assay system reagent (Promega). Following background subtraction of the luminescence signal derived from wells coated with streptavidin, the luminescence intensity was normalized to wells with immobilized H3K9me3 peptide.
(§2) To enhance detection sensitivity, each chromodomain was expressed as a fusion to the N-terminus of an engineered firefly luciferase and binding was measured by luminescence intensity.
For B1, the binding result is listed as “no binding (tested: 100 nM)”.
Regarding B2, the binding result is reported as “no binding (tested: 0.1 nM)”.
Same read-out and setting: then B3, with “no binding (tested: 100 nM)”; and B4, with “no binding (tested: 100 nM)”.
On the same count and under the same terms, then B5, with “no binding (tested: 0.1 nM)”.

Another experiment deals with T2, H3K27me1. Description: luciferase-fusion assay on immobilized peptide. Here is the method:
as §1, §2
Consider B1, for which the binding result is given as “no binding (tested: 100 nM)”.
Same read-out and setting: then B2, with “no binding (tested: 0.1 nM)”.
On the same count and under the same terms, for B3 the value was “no binding (tested: 100 nM)”.
Still for that read-out and setting: then B4, with “no binding (tested: 100 nM)”; and B5, with “no binding (tested: 0.1 nM)”.

The next experiment concerns the target T3, H3K27me2. Put plainly: luciferase-fusion assay on immobilized peptide. Here is the method:
as §1, §2
As for B1, the binding result is “no binding (tested: 100 nM)”.
B2: the binding result was “no binding (tested: 0.1 nM)”.
On the same count and under the same terms, then B3, with “no binding (tested: 100 nM)”; and B4, with “no binding (tested: 100 nM)”; and B5, with “no binding (tested: 0.1 nM)”.

The target in the next experiment is T4, H3R17. Description: luciferase-fusion assay on immobilized peptide. Here is the method:
as §1, §2
In the case of B1, the binding result was “no binding (tested: 100 nM)”.
On to B2, for which the binding result was “no binding (tested: 0.1 nM)”.
For B3, the binding result was “no binding (tested: 100 nM)”.
Same read-out and setting: then B4, with “no binding (tested: 100 nM)”.
Turning to B5, the binding result is on record as “no binding (tested: 0.1 nM)”.

A further experiment deals with T5, H3R17me1. Description: luciferase-fusion assay on immobilized peptide. Here is the method: as §1, §2
With B1, the binding result is listed as “no binding (tested: 100 nM)”.
Consider B2, for which the binding result was “no binding (tested: 0.1 nM)”.
For the molecule B3, the binding result is listed as “no binding (tested: 100 nM)”.
Same read-out and setting: then B4, with “no binding (tested: 100 nM)”; and B5, with “no binding (tested: 0.1 nM)”.

The target in a further experiment is T9, H4K20me3 (Kme3 at peptide residue 8 (histone H4 K20); N-terminal biotin and aminohexanoic acid linker).
T9 construct: also called H4K20Me3 peptide
Description: luciferase-fusion assay on immobilized peptide. The protocol:
as §1, §2
As to B1, the binding result was “no binding (tested: 100 nM)”.
Consider B2, for which the binding result is given as “no binding (tested: 0.1 nM)”.
As to B3, the binding result is given as “no binding (tested: 100 nM)”.
Same read-out and setting: then B4, with “no binding (tested: 100 nM)”; and B5, with “no binding (tested: 0.1 nM)”.

Another experiment concerns the target T6, H3K14. Description: luciferase-fusion assay on immobilized peptide. The protocol:
as §1, §2
Consider B1, for which the binding result is “no binding (tested: 100 nM)”.
The same measure, in the same setting: then B2, with “no binding (tested: 0.1 nM)”.
The same measure, in the same setting: then B3, with “no binding (tested: 100 nM)”; and B4, with “no binding (tested: 100 nM)”.
On the same count and under the same terms, then B5, with “no binding (tested: 0.1 nM)”.

The next experiment addresses T7, H3K27me3 peptide. Put plainly: luciferase-fusion assay on immobilized peptide. The protocol: as §1, §2
B1: the binding result was “no binding (tested: 100 nM)”.
On the same count and under the same terms, then B2, with “no binding (tested: 0.1 nM)”; and B3, with “no binding (tested: 100 nM)”; and B4, with “no binding (tested: 100 nM)”.
On the same count and under the same terms, for B5 the value was “no binding (tested: 0.1 nM)”.

The target in another experiment is T8, H3K27 peptide (non-methylated). Put plainly: luciferase-fusion assay on immobilized peptide. The protocol: as §1, §2
Turning to B1, the binding result is “no binding (tested: 100 nM)”.
As for B2, the binding result is recorded as “no binding (tested: 0.1 nM)”.
Still for that read-out and setting: then B3, with “no binding (tested: 100 nM)”.
As to B4, the binding result was “no binding (tested: 100 nM)”.
As to B5, the binding result is recorded as “no binding (tested: 0.1 nM)”.

Another experiment concerns the target H4K20 peptide (N-terminus biotin + aminohexanoic acid linker). Description: luciferase-fusion assay on immobilized peptide. Here is the method: as §1, §2
In the case of B1, the binding result is reported as “no binding (tested: 100 nM)”.
On the same count and under the same terms, then B2, with “no binding (tested: 0.1 nM)”; and B3, with “no binding (tested: 100 nM)”; and B4, with “no binding (tested: 100 nM)”.
Still for that read-out and setting: for B5 the value was “no binding (tested: 0.1 nM)”.
